Test results reported in PubChem BioAssay AID504437 (Emory University Molecular Libraries Screening Center, 2011).
Only a part is listed here, and it is no random draw. Active and inactive are the calls of the source.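 How the source made its calls: active means mean of three repeat readings of reporter signal inhibition above a set limit (cut at about 70% in these data); inactive means the rest.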

experiment: retest of CHOP induction inhibitors, confirmation, cell-based (AID 504437); conditions: CHO-CHOP promoter luciferase reporter, tunicamycin-induced, luminescence; at 10 µM; active compounds read high;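 further: 0% = tunicamycin plus vehicle and 100% = wells lacking tunicamycin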

inhibition, active:
COc1cc(CN2CCc3ccccc3C2)ccc1O 113%
CCc1ccc(Oc2coc3cc(OCC(=O)Nc4cc(C)ccc4C)ccc3c2=O)cc1 104%
CC(C)(C)C1CCC2(CC1)C(C#N)=C(SCC(=O)Nc1ccccc1)NC(=O)C2C#N (stereo not given) 113%
Nc1nonc1-n1nnc(C(=O)N/N=C/c2ccc(OCc3ccc(F)cc3)cc2)c1COc1ccccc1 83.8%
COc1ccc2[nH]c3c(C)c4ccncc4c(C)c3c2c1 127%
